Target: α1-adrenergic receptor
Assay: Interaction with α1 receptors, [3H]-prazosin binding, rat cortex
Settings: Table 1; mean and standard deviation; read-out: α1 Ki ± ds

Structure (SMILES): O=C(CCCN1CCC(O)(c2ccc(Cl)cc2)CC1)c1ccc(F)cc1 [Haloperidol, haloperidol, reference compound]
- Ki: 12 ± 2.5 nM
